## Library screen at single concentrations

Protein sequences, listed by entry. Tags and fused reporters are not part of them. Residues count along the entry.
UniProt I6X8D2, whole entry: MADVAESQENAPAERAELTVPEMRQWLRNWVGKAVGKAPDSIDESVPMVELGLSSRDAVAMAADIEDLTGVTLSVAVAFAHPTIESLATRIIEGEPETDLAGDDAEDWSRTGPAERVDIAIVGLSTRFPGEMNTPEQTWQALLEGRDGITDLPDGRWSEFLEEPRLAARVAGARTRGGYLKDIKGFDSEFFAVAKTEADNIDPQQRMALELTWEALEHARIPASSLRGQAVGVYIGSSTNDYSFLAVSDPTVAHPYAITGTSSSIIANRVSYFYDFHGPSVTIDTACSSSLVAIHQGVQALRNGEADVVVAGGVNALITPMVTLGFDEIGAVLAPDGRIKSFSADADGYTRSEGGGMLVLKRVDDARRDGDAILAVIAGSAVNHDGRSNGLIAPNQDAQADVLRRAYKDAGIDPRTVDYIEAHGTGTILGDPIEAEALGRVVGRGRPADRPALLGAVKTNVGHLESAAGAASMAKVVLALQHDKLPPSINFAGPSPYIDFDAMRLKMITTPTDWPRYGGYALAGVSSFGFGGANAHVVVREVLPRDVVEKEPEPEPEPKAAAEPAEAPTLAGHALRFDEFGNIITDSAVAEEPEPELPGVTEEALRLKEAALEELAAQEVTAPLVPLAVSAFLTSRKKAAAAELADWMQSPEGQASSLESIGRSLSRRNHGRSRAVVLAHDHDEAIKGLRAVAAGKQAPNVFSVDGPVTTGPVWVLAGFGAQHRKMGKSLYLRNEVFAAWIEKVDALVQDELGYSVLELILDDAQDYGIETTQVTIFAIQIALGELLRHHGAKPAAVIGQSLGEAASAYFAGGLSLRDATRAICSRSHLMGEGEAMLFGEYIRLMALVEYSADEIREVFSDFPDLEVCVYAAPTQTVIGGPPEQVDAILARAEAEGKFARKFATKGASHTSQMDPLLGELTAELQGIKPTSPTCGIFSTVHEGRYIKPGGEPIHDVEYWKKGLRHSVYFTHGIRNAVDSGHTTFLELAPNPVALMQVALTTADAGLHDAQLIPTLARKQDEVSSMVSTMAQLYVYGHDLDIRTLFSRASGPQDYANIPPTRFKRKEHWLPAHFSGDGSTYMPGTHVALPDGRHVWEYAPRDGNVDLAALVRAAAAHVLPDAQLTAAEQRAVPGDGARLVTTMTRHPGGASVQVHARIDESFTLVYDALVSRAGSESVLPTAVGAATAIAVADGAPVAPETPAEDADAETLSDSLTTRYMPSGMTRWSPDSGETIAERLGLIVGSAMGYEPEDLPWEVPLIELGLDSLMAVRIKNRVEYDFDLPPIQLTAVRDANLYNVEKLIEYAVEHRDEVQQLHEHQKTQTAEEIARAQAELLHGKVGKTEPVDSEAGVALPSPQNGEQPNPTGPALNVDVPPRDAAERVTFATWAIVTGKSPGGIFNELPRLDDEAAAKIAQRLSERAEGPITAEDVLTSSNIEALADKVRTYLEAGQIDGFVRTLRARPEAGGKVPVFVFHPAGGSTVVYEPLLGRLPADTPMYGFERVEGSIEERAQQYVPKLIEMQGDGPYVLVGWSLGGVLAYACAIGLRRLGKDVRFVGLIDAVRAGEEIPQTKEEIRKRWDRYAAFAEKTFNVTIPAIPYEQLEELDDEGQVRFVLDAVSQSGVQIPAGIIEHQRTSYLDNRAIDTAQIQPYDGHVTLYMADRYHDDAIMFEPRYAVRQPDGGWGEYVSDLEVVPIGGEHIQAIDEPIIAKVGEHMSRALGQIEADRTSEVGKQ
UniProt A4I591, 1-473: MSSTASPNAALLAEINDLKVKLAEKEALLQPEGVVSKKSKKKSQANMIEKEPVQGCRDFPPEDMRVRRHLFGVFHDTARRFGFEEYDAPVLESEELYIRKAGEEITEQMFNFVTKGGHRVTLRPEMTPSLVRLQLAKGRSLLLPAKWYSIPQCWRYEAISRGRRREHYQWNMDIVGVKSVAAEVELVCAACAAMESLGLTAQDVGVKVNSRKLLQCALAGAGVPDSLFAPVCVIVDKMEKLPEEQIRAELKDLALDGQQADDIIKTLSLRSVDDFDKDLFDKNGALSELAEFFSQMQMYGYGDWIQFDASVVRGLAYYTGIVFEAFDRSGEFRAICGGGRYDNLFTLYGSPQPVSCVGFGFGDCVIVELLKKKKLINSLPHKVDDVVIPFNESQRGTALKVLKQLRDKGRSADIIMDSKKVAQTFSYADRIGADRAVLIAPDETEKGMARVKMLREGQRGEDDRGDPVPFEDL

A: 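Cell assay of Leishmania donovani living inside macrophages; the read-out is not stated. Compounds at 30 µM. Direction is inferred from retests: higher values go with stronger inhibition. Of about 69,000 compounds tested this way, about 1,000 (1.5%) reached 50% or more in at least one test.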
B: 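Polyketide synthase Pks13, Mycobacterium tuberculosis (UniProt I6X8D2). Enzyme assay of the thioesterase domain of polyketide synthase 13; the read-out is not stated. Compounds at 30 µM. Higher reads as stronger inhibition (inferred from which compounds were picked for retests). Of about 67,000 compounds tested this way, about 300 (0.46%) reached 50% or more in at least one test.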
C: 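Enzyme assay of histidyl-tRNA synthetase; the read-out is not stated. Target: Histidine-tRNA ligase, Leishmania infantum (UniProt A4I591). Compounds at 30 µM. The record gives no direction; compounds that gave an IC50 in retests scored well above the rest, so higher reads as stronger inhibition. The assay is labelled LdHisRS but filed under L. infantum. Of about 69,000 compounds tested this way, about 410 (0.6%) reached 50% or more in at least one test.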

The filed quantity is “Percent Effect” (%).
The controls that fix the scale are not given in the record; negative values are as filed.
This is an unselected part of the compounds tested.
Two or more numbers in one place are separate tests of the same structure; such repeats can differ widely.

With Cc1ccc(CNC2CCN(CCc3ccncc3)CC2)cc1C the screen gave A: 92.66%; B: -33.69%; C: 15.38%.
With CN(Cc1n[nH]c2c1CCCC2)c1nc2c(c(=O)[nH]1)CCNCC2 the screen gave A: 14.43%; B: -20.48%; C: 18.03%.
With c1ccc(-c2nc(CN3CCc4c(ncn4C4CC4)C3)cs2)cc1 the screen gave A: 10.33%; B: -18.81%; C: -6.25%.
With CC(C)NC(=O)NC[C@@]1(COc2cnccn2)C[C@@H](O)[C@@H](O)C1.Cl the screen gave A: 19.26%.
With Cc1c(Br)cccc1C(=O)NC(C)CN1CCCC1=O (centres unmarked) the screen gave A: 37.09%; B: -2.903%; C: 15.38%.
With Cc1noc(C)c1S(=O)(=O)N1C[C@@H](C(=O)O)[C@H](c2ccccn2)C1 the screen gave A: 36.81%; B: -15.84%; C: 12.7%.
With CCc1ccc(C(=O)NC2CCCN(c3ccn(C)n3)C2=O)o1 (centres unmarked) the screen gave A: -3.983%; B: 1.272%; C: -1.961%.
With CC1N(CC2CC2)C(=O)COC12CCN(C(=O)c1cscn1)CC2 (centres unmarked) the screen gave A: 22.33%; B: -37.11%; C: 18.8%.
With CN1CCCCC1c1ncc2c(n1)CCN(Cc1ccccc1Cl)C2 (centres unmarked) the screen gave A: 23.51%; B: -27.58%; C: 32.85%.
With [H][C@@]12CCN(Cc3ccoc3)C[C@]1([H])O[C@H](C(=O)NCC1CC1)C2 the screen gave A: 20.53%.
With [H][C@]12CN(C(=O)c3nonc3C)CC[C@@]1(O)CCN(C1CCCCC1)C2 the screen gave A: 13.05%.
With COCC1CC2(CCN(Cc3cnn(C)c3)CC2)CN1C(C)C (centres unmarked) the screen gave B: 0.3721%; C: 21.57%.
With Cc1cc(NCc2csc(C)n2)no1 the screen gave A: -0.8803%; B: 28.08%; C: 6.306%.
With Cc1ccccc1N1CCN(C(=O)c2ncc(F)cc2F)C(C)C1 (centres unmarked) the screen gave A: -1.124%; B: -2.396%; C: 30.56%.
With O=C(c1cscn1)N1CCc2[nH]nc(Nc3ccccc3)c2C1 the screen gave A: 47.49%; B: 2.599%; C: 5.594%.
With Cc1ccc2nnc(C(=O)NCC3CCCC3)nc2c1 the screen gave A: 20.95%; B: 0.8436%; C: 3.448%.
With COCCn1c(-c2cccc(OC)c2)cnc1NC(=O)NCC(C)C the screen gave A: -14.81% & 25.33%; B: -14.65%; C: 18.42%.
With CC(C)N(C)CCNC(=O)NCc1ccccc1-n1cccn1 the screen gave A: -14.92%; B: 7.037%; C: 9.649%.
With CC1CN(CC(=O)NCCc2ccncc2)Cc2ccccc2O1 (centres unmarked) the screen gave A: 3.915%; B: -5.591%; C: -2%.
With O=C(C1CCC1)N1C[C@@H]2CC[C@H](C1)N(S(=O)(=O)c1cccnc1)C2 the screen gave B: -13.89%; C: 12.05%.
With Cc1cccc2c1cnn2CCCNC(=O)CCCC(=O)O the screen gave A: 7.499%; B: -10.34%; C: 19.81%.
With O=C(O)c1ccn(-c2ccc(NC(=O)c3ccccc3Cl)cc2)n1 the screen gave A: -29.89%; B: 22.36%; C: 1.333%.
With COc1ccc(CN2CCC[C@H]2c2nc(-c3cncnc3N)no2)cc1 the screen gave A: -2.87%; C: 22.97%.
With COCc1nnn2c1CN(C(=O)c1c[nH]cn1)CCC2 the screen gave A: -21.32%; B: -33.53%; C: 21.37%.

The first 3 entries again:

* Cc1ccc(CNC2CCN(CCc3ccncc3)CC2)cc1C : A: 92.66%; B: -33.69%; C: 15.38%
* CN(Cc1n[nH]c2c1CCCC2)c1nc2c(c(=O)[nH]1)CCNCC2 : A: 14.43%; B: -20.48%; C: 18.03%
* c1ccc(-c2nc(CN3CCc4c(ncn4C4CC4)C3)cs2)cc1 : A: 10.33%; B: -18.81%; C: -6.25%

Source: ChEMBL document CHEMBL3988442, “University of Dundee, Small-Polar-MMV Screening Library” (2021).